No constants are given. Whether binding was seen depends on the method and setting. Binding seen in cells or lysates may run through a third protein. Some results given as binding are weak or reduced against the parent protein; the word gives no strength. Tags and fused reporters may be left off the sequences shown.
T1: His-tagged OAS2 (recombinant human 2′-5′-oligoadenylate synthetase 2, wild type) (human) (UniProt P29728)
T1 sequence: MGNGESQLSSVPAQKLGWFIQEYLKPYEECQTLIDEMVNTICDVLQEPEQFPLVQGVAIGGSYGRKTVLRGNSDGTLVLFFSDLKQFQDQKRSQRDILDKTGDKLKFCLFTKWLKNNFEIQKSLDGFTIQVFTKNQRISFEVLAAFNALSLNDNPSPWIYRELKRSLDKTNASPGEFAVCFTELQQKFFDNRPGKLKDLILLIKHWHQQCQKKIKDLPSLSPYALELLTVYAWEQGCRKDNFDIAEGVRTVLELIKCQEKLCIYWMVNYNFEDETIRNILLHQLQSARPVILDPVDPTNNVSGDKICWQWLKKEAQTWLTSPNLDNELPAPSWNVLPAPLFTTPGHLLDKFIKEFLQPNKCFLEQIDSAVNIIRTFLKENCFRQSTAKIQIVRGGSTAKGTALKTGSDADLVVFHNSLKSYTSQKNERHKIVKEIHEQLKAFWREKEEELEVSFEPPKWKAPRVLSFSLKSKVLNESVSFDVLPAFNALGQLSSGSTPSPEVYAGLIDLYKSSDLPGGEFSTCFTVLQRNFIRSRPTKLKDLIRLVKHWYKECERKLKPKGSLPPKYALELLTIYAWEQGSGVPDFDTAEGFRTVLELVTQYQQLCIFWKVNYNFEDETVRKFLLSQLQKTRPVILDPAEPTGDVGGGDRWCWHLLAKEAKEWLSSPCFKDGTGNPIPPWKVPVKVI

T2: FLAG-tagged OAS2 (recombinant human 2′-5′-oligoadenylate synthetase 2, wild type) (human) (UniProt P29728)
T2 sequence: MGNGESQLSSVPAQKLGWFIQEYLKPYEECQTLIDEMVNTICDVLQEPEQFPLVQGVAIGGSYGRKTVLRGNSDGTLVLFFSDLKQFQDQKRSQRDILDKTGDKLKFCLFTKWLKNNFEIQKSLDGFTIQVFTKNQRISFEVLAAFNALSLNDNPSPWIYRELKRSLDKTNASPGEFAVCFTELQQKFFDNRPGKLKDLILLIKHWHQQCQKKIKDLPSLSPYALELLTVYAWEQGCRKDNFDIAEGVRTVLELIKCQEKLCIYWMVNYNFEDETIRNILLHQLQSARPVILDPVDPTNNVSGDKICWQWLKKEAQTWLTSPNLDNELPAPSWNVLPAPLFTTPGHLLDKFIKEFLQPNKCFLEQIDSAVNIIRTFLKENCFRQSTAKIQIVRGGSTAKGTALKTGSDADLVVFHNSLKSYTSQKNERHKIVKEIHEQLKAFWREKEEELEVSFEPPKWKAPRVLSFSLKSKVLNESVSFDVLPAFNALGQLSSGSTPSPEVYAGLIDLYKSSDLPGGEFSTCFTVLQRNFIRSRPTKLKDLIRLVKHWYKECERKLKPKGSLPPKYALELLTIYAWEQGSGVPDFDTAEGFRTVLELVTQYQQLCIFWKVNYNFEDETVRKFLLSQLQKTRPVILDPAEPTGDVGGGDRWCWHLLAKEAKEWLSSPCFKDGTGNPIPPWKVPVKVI


Key:
[1] = biological target: T1, His-tagged OAS2 (recombinant human 2′-5′-oligoadenylate synthetase 2, wild type) (human); test: co-IP; HEK293T co-transfected with FLAG-OAS2 and HIS-OAS2; combined cytoplasmic and nuclear lysate; IP with anti-HIS (blot anti-FLAG) and the reciprocal IP with anti-FLAG (blot anti-HIS); protein A/G beads, 25 mM HEPES pH 7.2, 175 mM NaCl, 0.25% IGEPAL, 4°C
[2] = biological target: T2, FLAG-tagged OAS2 (recombinant human 2′-5′-oligoadenylate synthetase 2, wild type) (human); test: as above

Binder | binding [1] | binding [2]
FLAG-tagged OAS2 (recombinant human 2′-5′-oligoadenylate synthetase 2, wild type) (enzyme, UniProt P29728-2 1-687, looked up, human 2′-5′-oligoadenylate synthetase 2 (OAS2); residues D408, D410, D481, C668, F669, K670 are named; The N-terminal position of FLAG is stated only for the CAFAKA mutant; also called FLAG-OAS2; wild-type OAS2; source: HEK293T, transfected (pcDNA3); in lysate for the co-immunoprecipitation) MGNGESQLSSVPAQKLGWFIQEYLKPYEECQTLIDEMVNTICDVLQEPEQFPLVQGVAIGGSYGRKTVLRGNSDGTLVLFFSDLKQFQDQKRSQRDILDKTGDKLKFCLFTKWLKNNFEIQKSLDGFTIQVFTKNQRISFEVLAAFNALSLNDNPSPWIYRELKRSLDKTNASPGEFAVCFTELQQKFFDNRPGKLKDLILLIKHWHQQCQKKIKDLPSLSPYALELLTVYAWEQGCRKDNFDIAEGVRTVLELIKCQEKLCIYWMVNYNFEDETIRNILLHQLQSARPVILDPVDPTNNVSGDKICWQWLKKEAQTWLTSPNLDNELPAPSWNVLPAPLFTTPGHLLDKFIKEFLQPNKCFLEQIDSAVNIIRTFLKENCFRQSTAKIQIVRGGSTAKGTALKTGSDADLVVFHNSLKSYTSQKNERHKIVKEIHEQLKAFWREKEEELEVSFEPPKWKAPRVLSFSLKSKVLNESVSFDVLPAFNALGQLSSGSTPSPEVYAGLIDLYKSSDLPGGEFSTCFTVLQRNFIRSRPTKLKDLIRLVKHWYKECERKLKPKGSLPPKYALELLTIYAWEQGSGVPDFDTAEGFRTVLELVTQYQQLCIFWKVNYNFEDETVRKFLLSQLQKTRPVILDPAEPTGDVGGGDRWCWHLLAKEAKEWLSSPCFKDGTGNPIPPWKVPVKVI | binds | 
His-tagged OAS2 (recombinant human 2′-5′-oligoadenylate synthetase 2, wild type) (enzyme, UniProt P29728-2 1-687) MGNGESQLSSVPAQKLGWFIQEYLKPYEECQTLIDEMVNTICDVLQEPEQFPLVQGVAIGGSYGRKTVLRGNSDGTLVLFFSDLKQFQDQKRSQRDILDKTGDKLKFCLFTKWLKNNFEIQKSLDGFTIQVFTKNQRISFEVLAAFNALSLNDNPSPWIYRELKRSLDKTNASPGEFAVCFTELQQKFFDNRPGKLKDLILLIKHWHQQCQKKIKDLPSLSPYALELLTVYAWEQGCRKDNFDIAEGVRTVLELIKCQEKLCIYWMVNYNFEDETIRNILLHQLQSARPVILDPVDPTNNVSGDKICWQWLKKEAQTWLTSPNLDNELPAPSWNVLPAPLFTTPGHLLDKFIKEFLQPNKCFLEQIDSAVNIIRTFLKENCFRQSTAKIQIVRGGSTAKGTALKTGSDADLVVFHNSLKSYTSQKNERHKIVKEIHEQLKAFWREKEEELEVSFEPPKWKAPRVLSFSLKSKVLNESVSFDVLPAFNALGQLSSGSTPSPEVYAGLIDLYKSSDLPGGEFSTCFTVLQRNFIRSRPTKLKDLIRLVKHWYKECERKLKPKGSLPPKYALELLTIYAWEQGSGVPDFDTAEGFRTVLELVTQYQQLCIFWKVNYNFEDETVRKFLLSQLQKTRPVILDPAEPTGDVGGGDRWCWHLLAKEAKEWLSSPCFKDGTGNPIPPWKVPVKVI |  | binds

Reference: PMC7264852, “Structural and Hydrodynamic Characterization of Dimeric Human Oligoadenylate Synthetase 2” (Biophysical Journal, 2020)
